Measurements from PMC9673352.
These are yes or no findings as the source states them, for the method shown. In cells and extracts the contact can be indirect. Here binding means that the protein was enriched with, or labelled near, the bait; the list need not be complete. Blank lines part the entries; values can stand above or below the binder they belong to.

Target: Ty1 integrase with a C-terminal histidine-biotin-histidine (HBH) tag (S. cerevisiae)
Test: affinity purification with mass spectrometry; TChAP: cells cross-linked in vivo with 1% formaldehyde, chromatin solubilised and sheared in 6 M urea buffer, IN-HBH purified on nickel then streptavidin beads under denaturing conditions; compared with a strain expressing untagged IN

B2: AC40 subunit of RNA polymerase I and III (protein, UniProt P07703 1-335)
chain: MSNIVGIEYNRVTNTTSTDFPGFSKDAENEWNVEKFKKDFEVNISSLDAREANFDLINIDTSIANAFRRIMISEVPSVAAEYVYFFNNTSVIQDEVLAHRIGLVPLKVDPDMLTWVDSNLPDDEKFTDENTIVLSLNVKCTRNPDAPKGSTDPKELYNNAHVYARDLKFEPQGRQSTTFADCPVVPADPDILLAKLRPGQEISLKAHCILGIGGDHAKFSPVSTASYRLLPQINILQPIKGESARRFQKCFPPGVIGIDEGSDEAYVKDARKDTVSREVLRYEEFADKVKLGRVRNHFIFNVESAGAMTPEEIFFKSVRILKNKAEYLKNCPITQ
- binding: binds

B3: Cka2, catalytic subunit of protein kinase CK2 (endogenous) (enzyme, UniProt P19454 1-339)
chain: MPLPPSTLNQKSNRVYSVARVYKNACEERPQEYWDYEQGVTIDWGKISNYEIINKIGRGKYSEVFSGRCIVNNQKCVIKVLKPVKMKKIYRELKILTNLTGGPNVVGLYDIVQDADSKIPALIFEEIKNVDFRTLYPTFKLPDIQYYFTQLLIALDYCHSMGIMHRDVKPQNVMIDPTERKLRLIDWGLAEFYHPGVDYNVRVASRYHKGPELLVNLNQYDYSLDLWSVGCMLAAIVFKKEPFFKGSSNPDQLVKIATVLGTKELLGYLGKYGLHLPSEYDNIMRDFTKKSWTHFITSETKLAVPEVVDLIDNLLRYDHQERLTAKEAMDHKFFKTKFE
- binding: binds

B4: Ckb1, regulatory subunit of protein kinase CK2 (endogenous) (protein, UniProt P43639 1-278)
chain: MSQEFVEDYSRTGSSDDEDSGAYDEWIPSFCSRFGHEYFCQVPTEFIEDDFNMTSLSQEVPHYRKALDLILDLEAMSDEEEDEDDVVEEDEVDQEMQSNDGHDEGKRRNKSPVVNKSIIEHAAEQLYGLIHARFILTKPGLQAMAEKFDHKEFGTCPRYYCNGMQLLPCGLSDTVGKHTVRLYCPSCQDLYLPQSSRFLCLEGAFWGTSFPGVFLKHFKELEEYVERKSKESYELKVFGFRINDEAVSGPRMKWLRQYPSTEEDWEEFAKCEFETPAV
- binding: binds

B7: Abf1, general regulatory factor (protein, UniProt P14164 1-731)
chain: MDKLVVNYYEYKHPIINKDLAIGAHGGKKFPTLGAWYDVINEYEFQTRCPIILKNSHRNKHFTFACHLKNCPFKVLLSYAGNAASSETSSPSANNNTNPPGTPDHIHHHSNNMNNEDNDNNNGSNNKVSNDSKLDFVTDDLEYHLANTHPDDTNDKVESRSNEVNGNNDDDADANNIFKQQGVTIKNDTEDDSINKASIDRGLDDESGPTHGNDSGNHRHNEEDDVHTQMTKNYSDVVNDEDINVAIANAVANVDSQSNNKHDGKDDDATNNNDGQDNNTNNDHNNNSNINNNNVGSHGISSHSPSSIRDTSMNLDVFNSATDDIPGPFVVTKIEPYHSHPLEDNLSLGKFILTKIPKILQNDLKFDQILESSYNNSNHTVSKFKVSHYVEESGLLDILMQRYGLTAEDFEKRLLSQIARRITTYKARFVLKKKKMGEYNDLQPSSSSNNNNNNDGELSGTNLRSNSIDYAKHQEISSAGTSSNTTKNVNNNKNDSNDDNNGNNNNDASNLMESVLDKTSSHRYQPKKMPSVNKWSKPDQITHSDVSMVGLDESNDGGNENVHPTLAEVDAQEARETAQLAIDKINSYKRSIDDKNGDGHNNSSRNVVDENLINDMDSEDAHKSKRQHLSDITLEERNEDDKLPHEVAEQLRLLSSHLKEVENLHQNNDDDVDDVMVDVDVESQYNKNTTHHNNHHSQPHHDEEDVAGLIGKADDEEDLSDENIQPELRGQ
- binding: binds

Other lines, results leading:

- binding: binds
B1: Ckb2, regulatory subunit of protein kinase CK2 (endogenous) (protein, UniProt P38930 1-258)
chain: MGSRSENVGTVTREGSRVEQDDVLMDDDSDSSEYVDMWIDLFLGRKGHEYFCDVDPEYITDRFNLMNLQKTVSKFSYVVQYIVDDLDDSILENMTHARLEQLESDSRKLYGLIHARYIITIKGLQKMYAKYKEADFGRCPRVYCNLQQLLPVGLHDIPGIDCVKLYCPSCEDLYIPKSSRHSSIDGAYFGTSFPGMFLQAFPDMVPKHPTKRYVPKIFGFELHKQAQLTRWQELQRLKLVEKLESKDVDLTKSGGFKT

- binding: binds
B5: Reb1, general regulatory factor (protein, UniProt P21538 1-810)
chain: MPSGHNDKNANQESVEEAVLKYVGVGLDHQNHDPQLHTKDLENKHSKKQNIVESSSDVDVNNNDDSNRNEDNNDDSENISALNANESSSNVDHANSNEQHNAVMDWYLRQTAHNQQDDEDDENNNNTDNGNDSNNHFSQSDIVVDDDDDKNKKDAGVGVDDDHQSMAMAAVAAAYTLSKNNNNNNSIANDSNSRKRQHDNGNNHENSQKKRKNNNDDDDRQIGNVDPELTTLGDADDNDTNNDVIDRDQLVHKAIIDADSITQHPDFQQYLNTAADTDDNEKLKHIKDHLMRTHGLNHQNKNHNDDTDDLSNSTKQYSELQKDSMLDSSLNKSRNYMEVLPKVISQDTQPHQQKSPSHDNEAGSVDNSEISQLLQSAATKASSLVSLSSSSATPSTSRSNNSKAFDKAEDAALERFINEYEAIERLTRQQVCERIWSSDRPKDNFWNNIYKVLPYRSSSSIYKHMRRKYHIFEQRGKWTAEEEQELAKLCAEKEGQWAEIGKTLGRMPEDCRDRWRNYVKCGTNRASNRWSVEEEELLKKVISDMLEEAQQQQSQLHPNLLEEEQHLLQDDQNDHRNNDEDDDDTASAAAAAAAAIQEQQQLLQQKQQDDDDAIAAAAAAASSSLGDNKDEDKPHDSLGIQLDDNSQNSMVPAPSATSTHSKSLSNTIRRHNNKLRKSLMGNGKLDFKDIINWTIVSERMGGTRSRIQCRYKWNKLVKREAIAKIQTVKDDDMLWIFEKLRDLGITEDSQVDWDELAALKPGMKLNGLELKLCYERMKKKVKGYKQKSINEISKELVDYFSSNISMKTEN

- binding: binds
B6: Rap1, general regulatory factor (protein, UniProt P11938 1-827)
chain: MSSPDDFETAPAEYVDALDPSMVVVDSGSAAVTAPSDSAAEVKANQNEENTGATAAETSEKVDQTEVEKKDDDDTTEVGVTTTTPSIADTAATANIASTSGASVTEPTTDDTAADEKKEQVSGPPLSNMKFYLNRDADAHDSLNDIDQLARLIRANGGEVLDSKPRESKENVFIVSPYNHTNLPTVTPTYIKACCQSNSLLNMENYLVPYDNFREVVDSRLQEESHSNGVDNSNSNSDNKDSIRPKTEIISTNTNGATEDSTSEKVMVDAEQQARLQEQAQLLRQHVSSTASITSGGHNDLVQIEQPQKDTSNNNNSNVNDEDNDLLTQDNNPQTADEGNASFQAQRSMISRGALPSHNKASFTDEEDEFILDVVRKNPTRRTTHTLYDEISHYVPNHTGNSIRHRFRVYLSKRLEYVYEVDKFGKLVRDDDGNLIKTKVLPPSIKRKFSADEDYTLAIAVKKQFYRDLFQIDPDTGRSLITDEDTPTAIARRNMTMDPNHVPGSEPNFAAYRTQSRRGPIAREFFKHFAEEHAAHTENAWRDRFRKFLLAYGIDDYISYYEAEKAQNREPEPMKNLTNRPKRPGVPTPGNYNSAAKRARNYSSQRNVQPTANAASANAAAAAAAAASNSYAIPENELLDEDTMNFISSLKNDLSNISNSLPFEYPHEIAEAIRSDFSNEDIYDNIDPDTISFPPKIATTDLFLPLFFHFGSTRQFMDKLHEVISGDYEPSQAEKLVQDLCDETGIRKNFSTSILTCLSGDLMVFPRYFLNMFKDNVNPPPNVPGIWTHDDDESLKSNDQEQIRKLVKKHGTGRMEMRKRFFEKDLL
